Measured values reported in patent publication US20260258137A1.
No constants are given. Whether binding was seen depends on the method and setting. Some results given as binding are weak or reduced against the parent protein; the word gives no strength.

Assays:
[1] = biological target: Cynomolgus PD-L1 (Acrobiosystems, PD1-C52H4) (cynomolgus) (UniProt G7PSE7); assay: ELISA, plate coated with cynomolgus PD-L1 protein, antibody at one concentration, goat anti-human HRP secondary antibody, OD450
[2] = biological target: cynomolgus PD-L1 on CHO-K1 cells (CHO-K1/cynoPD-L1, Nanjing Genscript, M00573) (cynomolgus) (UniProt G7PSE7); assay: flow cytometry on CHO-K1/cynoPD-L1 cells
[3] = biological target: cynomolgus PD-L1 on CHO-K1 cells (CHO-K1/cynoPD-L1, Nanjing Genscript, M00573) (cynomolgus) (UniProt G7PSE7); assay: flow cytometry on CHO-K1/cynoPD-L1 cells (legend of FIG. 2)

Binder | binding [1] | binding [2] | binding [3]
PR000064 (antibody, human IgG1, kappa, N297A, V domains shown) VH: EVQLVESGGGLVQPGGSLRLSCAASGFTFSSYWMSWVRQAPGKGLEWVANIKQDGSEKYYVDSVKGRFTISRDNAKNSLYLQMNSLRAEDTAVYYCARDRAVAGAFDIWGQGTMVTVSS VL: DIQMTQSPSTLSTSVGDRVTITCRASQSISIWLAWYQQKPGKAPKLLIYKASSLESGVPSRFSGSGSGTEFTLTISSLQPDDFATYYCQQYYGYSRTFGQGTKVEIKR | binds | – | –
PR000065 (antibody, human IgG1, kappa, N297A, V domains shown) VH: EVQLVESGGGLVQPGGSLRLSCAASGFTFSSYWMSWVRQAPGKGLEWVANIKQDGSEKYYVDSVKGRFTISRDNAKNSLYLQMNSLRAEDTAVYYCARDRAVAGAFDIWGQGTMVTVSS VL: DIQMTQSPSTLSASVGDRVTITCRASQSIFIWLAWYQQKPGKAPNLLIYKASSLETGVPSRFSGSGSGTEFTLTISSLQPDDFATYYCQQYYGSSRTFGQGTKVEIKR | binds | – | –
PR000066 (antibody, human IgG1, kappa, N297A, V domains shown) VH: EVQLVESGGGLVQPGGSLRLSCAASGFTFSSYWMSWVRQAPGKGLEWVANIKQDGSEKYYVDSVKGRFTISRDNAKNSLYLQMNSLRAEDTAVYYCARDRAVAGASAFWGQGTMVTVSS VL: DIQMTQSPSTLSASVGHRVTITCRASQSISIWLAWYQQKPGKAPDLLIYKASSLETGVPSRFSGNGSGTEFTLTISSLQPDDFATYYCQQYYGSSRTFGQGTKVEIKR | binds | – | –
PR000069 (antibody, human IgG1, kappa, N297A, V domains shown) VH: EVQLVESGGGLVQPGGSLRLSCAASGFTFSSYWMSWVRQAPGKGLEWVANIKQDGSEKYYVDSVKGRFTISRDNAKNSLYLQMNSLRAEDTAVFYCARDRAVAGAFAIWGQGTMVTVSS VL: DIQMTQSPSTLSASVGDRVTITCRASQSIYIWLAWYQQHPGKAPKLLIYKASSLESGVPSRFSGSGSGTEFTLTISSLQPDDFATYFCQQYYGYSRTFGQGTKVEIRR | binds | – | –
PR000070 (antibody, human IgG1, kappa, N297A, V domains shown) VH: EVQLVESGGGLVQPGGSLRLSCAASGFTFSSYWMSWVRQAPGKGLEWVANIKQDGSEKYYVDSVKGRFTISRDNAKNSLYLQMNSLRAEDTAVYYCARDRAVAGAFDIWGQGTMVTVSS VL: DIQMTQSPSTLSASVGDRVTVTCRASQSIYIWLAWYQQKPGKAPNLLIYKASSLETGVPSRFSGSGSGTEFTLTISSLQPDDFATYYCQQYYGSSRTFGQGTKVEIKR | binds | – | –
PR000072 (antibody, human IgG1, kappa, N297A, V domains shown) VH: EVQLVESGGGLVQPGGSLRLSCAASGFTFSSYWMSWVRQAPGKGLEWVANIKQDGSEKYYGDSVKGRFTISRDNAKNSLYLQMNSLRAEETAVYYCARDRAVAGASDIWGQGTMVTVSS VL: DIQMTQSPSTLSASVGDRVTITCRASQSISSWLAWYQQKPGKAPNLLIYKASSLETGVPSRFSGSGSGTEFTLTISSLQPDDFATYYCQQYYGYSRTFGQGTKVEIKR | binds | – | –
PR000266 (antibody, human IgG1, kappa, N297A, V domains shown) VH: EVQLVESGGGLVQPGGSLRLSCAASGFTFSSYWMSWVRQAPGKGLEWVANIKQDASEKYYVDSVKGRFTISRDNAKNSLYLQMNSLRAEDTAVYYCARDRAVAGAFDIWGQGTMVTVSS VL: DIQMTQSPSTLSASVGDRVTVTCRASQSIYIWLAWYQQKPGKAPNLLIYKASSLETGVPSRFSGSGSGTEFTLTISSLQPDDFATYYCQQYYGSSRTFGQGTKVEIKR | – | binds | binds
PR000267 (antibody, human IgG1, kappa, N297A, V domains shown) VH: EVQLVESGGGLVQPGGSLRLSCAASGFTFSSYWMSWVRQAPGKGLEWVANIKQEGSEKYYGDSVKGRFTISRDNAKNSLYLQMNSLRAEETAVYYCARDRAVAGASDIWGQGTMVTVSS VL: DIQMTQSPSTLSASVGDRVTITCRASQSISSWLAWYQQKPGKAPNLLIYKASSLETGVPSRFSGSGSGTEFTLTISSLQPDDFATYYCQQYYGYSRTFGQGTKVEIKR | – | binds | binds
PR000268 (antibody, human IgG1, kappa, N297A, V domains shown) VH: EVQLVESGGGLVQPGGSLRLSCAASGFTFSSYWMSWVRQAPGKGLEWVANIKQDASEKYYGDSVKGRFTISRDNAKNSLYLQMNSLRAEETAVYYCARDRAVAGASDIWGQGTMVTVSS VL: DIQMTQSPSTLSASVGDRVTITCRASQSISSWLAWYQQKPGKAPNLLIYKASSLETGVPSRFSGSGSGTEFTLTISSLQPDDFATYYCQQYYGYSRTFGQGTKVEIKR | – | binds | binds
